The list shows only some results of the screen, not a fair sample: it gathers some chemical classes. Other doses and runs of a compound may be missing. T/C: endpoint of the treated group in % of that of the vehicle group. Some doses have a count of surviving animals in place of a T/C: the source files T/C as zero there, which appears to mark a toxic dose or a test without result, not a measured value. Some survivor counts are full or nearly so, which does not show that the dose was tolerated: survival well below the control is almost never listed, so the zero probably covers shortened survival too. Survivors were counted at the toxicity check, usually on the fifth day, unless a day is given; later deaths do not show. Schedules are NCI's codes, taken here to give the interval after Q, in days (D) or hours (H), and the number of doses after X. Some entries were tested several times; the values are given in rising order. Where survival is the endpoint, the PubChem record calls one and a half times the control and up active, and a quarter to a half above the control has no call in these data; cut-offs in other NCI protocols can differ.

The assay concerns Lymphosarcoma Mecca ip in C3AKF1 mice, survival T/C%. As to the kind of experiment: NCI In Vivo Anticancer Drug Screen. Data for tumor model Lymphosarcoma Mecca (intraperitoneal) in C3AKF1 (CHKRF1) mice. Particulars: T/C endpoint: survival time, mean or median, schedule: Q01DX010 (ip), vehicle: saline, higher T/C = longer survival. How it is done: The antitumor activity of compounds was measured in mice bearing transplantable tumors. Survival or tumor size were measured and the results are expressed as the measurement made in the treated group (T) divided by the measurement made in the vehicle treated control group (C). The tumor model used in this assay is Lymphosarcoma Mecca (intraperitoneal) in C3AKF1 (CHKRF1) mice

`Cc1[nH]c(=O)[nH]c(=O)c1N(CCCl)CCCl`: the T/C was 115 % of control (dose: 0.25 mg/kg/injection), 120 % of control (dose: 0.5 mg/kg/injection), 140 % of control (dose: 1.0 mg/kg/injection) and 220 % of control (dose: 2.0 mg/kg/injection).
For the compound `CN(N=O)C(=N)N[N+](=O)[O-]`, the T/C by setting is: (dose: 8.0 mg/kg/injection) 130 and 177 % of control; (dose: 16.0 mg/kg/injection) 118 and 160 % of control; (dose: 32.0 mg/kg/injection) 90 % of control. Also, the survivor count runs as follows: (dose: 32.0 mg/kg/injection) 6 of 6; (dose: 64.0 mg/kg/injection) 5 of 6 and 6 of 6.

Values taken from PubChem BioAssay AID304 (DTP/NCI, 2004).
